This experiment can be described thus: qHTS Assay for Lipid Storage Modulators in Drosophila S3 Cells.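 On cell number change: cells counted by Cell Tracker Red CMTPX staining in the red channel.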 The note with it: BODIPY lipid droplet fluorescence, 18-24 h; for cell number change: measured here: cell count max response, cells fed with added oleic acid. In outline:
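Drosophila S3 cells loaded with oleic acid (400 uM, as added) and compounds at several concentrations; lipid droplets imaged by 488-nm laser-scanning cytometry, 500–530 nm intensity and object ratio to cell channel. Percent activity normalized to 20 uM Triacsin C.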
Background: In qHTS, concentration-response curves come from the screen itself.

Setting [1] is: measured here: lipid fluorescence (Fed channel) AC50, cells fed with added oleic acid.
Where [2] appears, read: measured here: cell number channel AC50, cells fed with added oleic acid.

The other results are listed elsewhere or left out. The main result of the screen is listed elsewhere. These columns were measured beside it and carry no call. Compounds called inactive in the main read-out are mostly missing here. Words in brackets tell the shape of the fitted curve; partial curves, single points and poor fits give uncertain potencies.

In general, AC50 refers to the concentration giving half of the maximal activity seen. A high value points to activity only at high concentration. As to `CCCN(c1ccccc1F)S(=O)(=O)c1cc(-c2cc(C)no2)ccc1OC`, the AC50 under setting [1] was 5.8 µM [falling, full curve].
For the compound `Cc1nonc1C(=O)N/N=C/c1ccc(O)c(O)c1`, the cell number change stood at 14.2%.
`O=c1ccc2cc(S(=O)(=O)N3CCN(c4ccccc4F)CC3)ccc2[nH]1`: the cell number change was -13.3%. Also, under setting [1], the AC50 is 6.51 µM [falling, single point].
Take `COc1cc2ccc3c(CCN(C)C)cc(OC)c(OC)c3c2cc1OC`: the cell number change stood at 13.5%. Moreover, the AC50 under setting [1] was 0.651 µM [rising, single point].
With `CCc1ccc(N(CC(=O)NCc2ccco2)C(=O)CCC(=O)Nc2nccs2)cc1`, the cell number change stood at 12.2%. Under setting [1], the AC50 is 0.58 µM [rising, single point].
Consider `CC(C)(NO)/C(=N\O)c1ccc(Cl)cc1`, for which the cell number change is -14%. Moreover, under setting [1], the AC50 is 2.31 µM [rising, single point].
Take `Cc1ccoc1C(=O)NCCCNC(=O)c1occc1C`: the cell number change was -49.7%. Further, under setting [2], the AC50 is 10.3 µM [falling, partial curve, poor fit]. Also, the AC50 under setting [1] was 8.2 µM [falling, partial curve].
For `CCOC(=O)c1ccc(NC(=O)CC2C(=O)N(c3ccccc3)C(=O)N2CCCOC)cc1` (stereo unspecified), the cell number change was 56.6%. Moreover, the AC50 under setting [2] is 6.51 µM [rising, partial curve]. The concentration at half-maximal activity (AC50) under setting [1] was 6.51 µM [rising, single point].
Regarding `CCOC(=O)C1=C(C)N(C)C(C)=C(C(=O)OCC)C1c1ccncc1`, the cell number change is -4.3%. Besides, the AC50 under setting [1] was 9.2 µM [rising, partial curve].
Consider `Cc1ccc2c(c1)N(CC(=O)NCCCN1CCCCC1)C(=O)CO2`, for which the cell number change amounted to 6.58%. The AC50 under setting [1] is 35.5 µM [falling, single point].
Regarding `Cc1cccc(C(=O)OCC(=O)NN2C(=O)NC3(CCCCC3)C2=O)c1`, the cell number change is -13.6%. Besides, the AC50 under setting [1] is 0.00651 µM [falling, full curve, poor fit].
As for `CCOC(=O)c1sc(N(Cc2ccccc2)C(=O)CSc2nnc(C3CC3)n2N)nc1C`, the cell number change is -21.7%. Further, the AC50 under setting [2] is 2.59 µM [falling, single point].
Regarding `COc1cccc(CN(C)c2nc(-c3cccs3)nc3ccccc23)c1`, the cell number change amounted to 37.4%. Moreover, the half-maximal activity concentration (AC50) under setting [2] was 18.4 µM [rising, partial curve]. In addition, the AC50 under setting [1] is 0.164 µM [rising, full curve, poor fit].
Regarding `O=C(O)c1[nH]c2ccccc2c1NS(=O)(=O)Cc1ccccc1`, the cell number change turned out to be 10.3%.
Consider `O=C(CSc1ccc(Cl)cc1)N/N=C/c1cccnc1`, for which the cell number change turned out to be 5.85%.
As to `N=c1n(CCN2CCCCC2)c2ccccc2n1CC(O)COc1ccccc1` (stereo unspecified), the cell number change worked out at 27.2%. In addition, the AC50 under setting [1] is 14.6 µM [rising, single point].
In the case of `C=CCc1ccccc1OCC(O)CN(C(C)C)C(C)C` (stereo unspecified), the cell number change is -24.6%. The half-maximal activity concentration (AC50) under setting [1] is 6.51 µM [falling, single point].
Regarding `O=C(Nc1nccs1)c1cc(-c2ccccn2)nc2c(Cl)cccc12`, the AC50 is, setting by setting: under setting [2], 2.31 µM [falling, single point]; under setting [1], 3.26 µM [falling, single point].
Take `CC(C)NS(=O)(=O)c1ccc(OCC(=O)NC(C)c2ccccc2)cc1` (stereo unspecified): the cell number change stood at 2.77%.
In the case of `COc1ccc(N2CCN(C(=O)CCC(=O)NNc3nc4ccccc4c4nc(C)nn34)CC2)cc1`, the cell number change was found to be 16.3%. Also, under setting [1], the AC50 was 3.66 µM [falling, single point].
For the compound `Cc1ccc(NC(=O)c2ccccc2-c2ccc(C(F)(F)F)cc2)cc1S(=O)(=O)N1CCOCC1`, the cell number change was found to be 2.51%.
On to `Cc1cc(C(=O)CSc2nc3ccccc3[nH]2)c(C)n1C`, for which the AC50 is 1.03 µM [rising, full curve] under setting [2] and 0.366 µM [rising, full curve] under setting [1].
As for `CCCNS(=O)(=O)c1ccc(OCC(=O)OC)cc1`, the cell number change is -14.6%. Besides, the half-maximal activity concentration (AC50) under setting [2] was 0.00461 µM [falling, full curve, poor fit].
As to `CCOC(=O)/C(=N/Nc1ccc(Cl)cc1)S(=O)(=O)c1ccccc1`, the cell number change came to 34.6%. Also, the AC50 under setting [2] was 9.2 µM [rising, partial curve, poor fit]. For the same compound, under setting [1], the AC50 was 18.4 µM [rising, partial curve].
In the case of `CC1(C)CC(=O)C=C(Nc2ccc(Cl)cc2)C1`, the cell number change amounted to 18.6%. Further, under setting [1], the AC50 was 8.2 µM [rising, partial curve, poor fit].
As to `O=C(CSc1nc(SCC(=O)NCc2ccccc2)n(-c2ccccc2)n1)NCc1ccccc1`, the cell number change is -11.1%. Further, under setting [2], the AC50 is 0.82 µM [rising, full curve]. Under setting [1], the AC50 is 0.731 µM [rising, partial curve, poor fit].
For the compound `CCOc1ccccc1-c1nc(CN2CCCC2c2nccs2)c(C)o1` (stereo unspecified), the cell number change was found to be 9.46%. Besides, the AC50 under setting [1] was 0.103 µM [rising, full curve, poor fit].
For the compound `COc1ccc2oc(-c3ccccc3)c(C(=O)O)c2c1`, the cell number change came out at 11.5%. The AC50 under setting [1] is 29.1 µM [rising, single point].
Regarding `O=C(Nc1ccccn1)c1ccc([N+](=O)[O-])o1`, the AC50 under setting [1] is 18.4 µM [falling, partial curve].
For `Cc1ccc(CSc2nc3nc(C)cc(C)c3c(=O)[nH]2)cc1`, the cell number change was found to be 35.1%. Moreover, under setting [2], the AC50 is 16.4 µM [rising, partial curve, poor fit]. The AC50 under setting [1] is 4.61 µM [falling, partial curve].
As to `Cc1cccc(NS(=O)(=O)c2cnc[nH]2)c1`, the cell number change was -14.8%. Also, the AC50 under setting [1] is 0.731 µM [falling, full curve].
`CCC(=O)N1CCN(C(=O)CC)C1c1ccccc1`: the cell number change is -64.2%. For the same compound, under setting [2], the concentration at half-maximal activity (AC50) is 16.4 µM [falling, single point].
Regarding `Cc1cccc(N2C(=O)c3ccc(C(=O)Nc4ccccn4)cc3C2=O)c1`, the cell number change is -37.6%. Besides, under setting [2], the AC50 was 0.00461 µM [falling, full curve, poor fit]. The concentration at half-maximal activity (AC50) under setting [1] was 6.51 µM [falling, full curve].
For the compound `CC(C)NC(=O)CSc1ccccc1C(=O)N1CCN(S(=O)(=O)Cc2ccccc2)CC1`, the cell number change stood at 9.64%.
On to `C/C(=N/Nc1ncc(Br)cn1)c1ccc(Br)cc1`, for which the cell number change is -9.89%. For the same compound, the AC50 under setting [1] is 1.16 µM [falling, partial curve, poor fit].
As for `CN(C)Cc1c(C(=O)N/N=C/c2ccccc2OCc2ccc(F)cc2)nnn1-c1nonc1N`, the cell number change was -0.855%.
As to `CCN(c1ccccc1)C1(O)C(=O)c2ccccc2C1=O`, the cell number change is -7.61%. Moreover, the AC50 under setting [1] is 0.731 µM [falling, single point].
As to `CC(=Nc1ccccc1)c1sc2ccccc2c1O`, the cell number change is 42%. In addition, the AC50 under setting [2] was 29.1 µM [rising, single point].
Turning to `CCCc1cc(C(=O)OC)c2ccccc2n1`, the cell number change is -5.18%. For the same compound, the AC50 under setting [1] is 8.2 µM [rising, partial curve].

These data come from PubChem BioAssay AID2685 (National Center for Advancing Translational Sciences (NCATS), 2010).
